Results published in article PMC12360028.
Results are given in words; binding and its absence hold for the method and conditions named. In cells and extracts the contact can be indirect. Some entries that bind do so weakly or less than the wild type.

Amino acid sequences for entries named in this document (tags omitted). Residues count along the entry.
UniProt P05107, residues 23-769: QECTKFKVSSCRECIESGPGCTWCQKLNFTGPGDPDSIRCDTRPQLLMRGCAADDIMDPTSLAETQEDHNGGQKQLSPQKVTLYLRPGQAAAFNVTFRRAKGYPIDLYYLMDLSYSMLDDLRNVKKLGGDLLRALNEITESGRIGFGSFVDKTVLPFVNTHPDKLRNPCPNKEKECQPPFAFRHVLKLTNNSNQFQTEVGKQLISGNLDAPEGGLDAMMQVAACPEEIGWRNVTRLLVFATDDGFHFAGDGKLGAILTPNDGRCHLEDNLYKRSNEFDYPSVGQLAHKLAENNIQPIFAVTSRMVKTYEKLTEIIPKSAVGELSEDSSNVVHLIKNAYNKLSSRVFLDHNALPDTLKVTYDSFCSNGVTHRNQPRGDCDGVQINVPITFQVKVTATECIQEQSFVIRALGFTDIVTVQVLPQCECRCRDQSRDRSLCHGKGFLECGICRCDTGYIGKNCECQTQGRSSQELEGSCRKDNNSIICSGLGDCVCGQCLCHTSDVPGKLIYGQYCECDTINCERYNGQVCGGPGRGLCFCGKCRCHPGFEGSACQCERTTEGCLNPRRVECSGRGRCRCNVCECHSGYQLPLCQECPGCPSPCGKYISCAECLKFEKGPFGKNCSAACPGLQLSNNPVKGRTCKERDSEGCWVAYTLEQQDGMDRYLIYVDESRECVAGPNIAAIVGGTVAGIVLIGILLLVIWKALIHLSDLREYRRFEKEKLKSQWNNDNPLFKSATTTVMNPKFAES
UniProt Q03692, residues 19-680: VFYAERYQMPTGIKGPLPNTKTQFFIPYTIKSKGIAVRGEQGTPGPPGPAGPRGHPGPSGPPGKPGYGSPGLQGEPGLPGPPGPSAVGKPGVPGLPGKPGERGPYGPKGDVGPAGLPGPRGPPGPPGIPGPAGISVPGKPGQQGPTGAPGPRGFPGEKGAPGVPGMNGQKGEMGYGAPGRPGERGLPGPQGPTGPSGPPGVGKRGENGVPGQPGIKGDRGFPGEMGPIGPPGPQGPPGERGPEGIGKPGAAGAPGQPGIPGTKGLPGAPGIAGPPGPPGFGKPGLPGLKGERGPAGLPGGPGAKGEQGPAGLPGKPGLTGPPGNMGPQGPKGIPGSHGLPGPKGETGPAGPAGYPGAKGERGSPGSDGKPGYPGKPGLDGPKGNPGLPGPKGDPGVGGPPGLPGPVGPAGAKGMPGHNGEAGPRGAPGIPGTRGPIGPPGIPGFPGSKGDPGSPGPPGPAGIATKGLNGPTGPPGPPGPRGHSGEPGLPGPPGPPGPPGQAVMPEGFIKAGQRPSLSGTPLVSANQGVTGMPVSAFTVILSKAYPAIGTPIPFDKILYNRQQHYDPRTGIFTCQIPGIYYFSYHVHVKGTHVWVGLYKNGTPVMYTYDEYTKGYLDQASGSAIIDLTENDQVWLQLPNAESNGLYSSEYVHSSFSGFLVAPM

Biological target: Cluster of differentiation 18 (UniProt P05107)
Assay: co-IP; Co-immunoprecipitation of COL10A1 and CD18 (Fig. 7I); cells, bait and conditions not told in the text shown (Supplementary Methods)

binding: binds
Substance: Collagen type X alpha 1 chain (from UniProt Q03692 19-680)
